Assay [1] deals with T1, Whi7-HA (S. cerevisiae) (UniProt P36167).
T1 sequence: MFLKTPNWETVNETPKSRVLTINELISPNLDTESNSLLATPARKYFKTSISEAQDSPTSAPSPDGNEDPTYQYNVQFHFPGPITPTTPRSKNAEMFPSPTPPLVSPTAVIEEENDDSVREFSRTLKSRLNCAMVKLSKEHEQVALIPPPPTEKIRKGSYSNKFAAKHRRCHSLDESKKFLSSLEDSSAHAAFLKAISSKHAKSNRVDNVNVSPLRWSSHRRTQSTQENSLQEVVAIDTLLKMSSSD
Put plainly: co-IP; Whi7-HA immunoprecipitated from crude extracts of grr1 cells overexpressing Grr1ΔF-FLAG (raffinose, then galactose for 4 h); Grr1ΔF detected by western analysis.

Sequences of proteins named here, by UniProt entry; tags and fusion partners are left off. A change or cut given only in a name is not applied to a line headed by its entry.
UniProt P24814: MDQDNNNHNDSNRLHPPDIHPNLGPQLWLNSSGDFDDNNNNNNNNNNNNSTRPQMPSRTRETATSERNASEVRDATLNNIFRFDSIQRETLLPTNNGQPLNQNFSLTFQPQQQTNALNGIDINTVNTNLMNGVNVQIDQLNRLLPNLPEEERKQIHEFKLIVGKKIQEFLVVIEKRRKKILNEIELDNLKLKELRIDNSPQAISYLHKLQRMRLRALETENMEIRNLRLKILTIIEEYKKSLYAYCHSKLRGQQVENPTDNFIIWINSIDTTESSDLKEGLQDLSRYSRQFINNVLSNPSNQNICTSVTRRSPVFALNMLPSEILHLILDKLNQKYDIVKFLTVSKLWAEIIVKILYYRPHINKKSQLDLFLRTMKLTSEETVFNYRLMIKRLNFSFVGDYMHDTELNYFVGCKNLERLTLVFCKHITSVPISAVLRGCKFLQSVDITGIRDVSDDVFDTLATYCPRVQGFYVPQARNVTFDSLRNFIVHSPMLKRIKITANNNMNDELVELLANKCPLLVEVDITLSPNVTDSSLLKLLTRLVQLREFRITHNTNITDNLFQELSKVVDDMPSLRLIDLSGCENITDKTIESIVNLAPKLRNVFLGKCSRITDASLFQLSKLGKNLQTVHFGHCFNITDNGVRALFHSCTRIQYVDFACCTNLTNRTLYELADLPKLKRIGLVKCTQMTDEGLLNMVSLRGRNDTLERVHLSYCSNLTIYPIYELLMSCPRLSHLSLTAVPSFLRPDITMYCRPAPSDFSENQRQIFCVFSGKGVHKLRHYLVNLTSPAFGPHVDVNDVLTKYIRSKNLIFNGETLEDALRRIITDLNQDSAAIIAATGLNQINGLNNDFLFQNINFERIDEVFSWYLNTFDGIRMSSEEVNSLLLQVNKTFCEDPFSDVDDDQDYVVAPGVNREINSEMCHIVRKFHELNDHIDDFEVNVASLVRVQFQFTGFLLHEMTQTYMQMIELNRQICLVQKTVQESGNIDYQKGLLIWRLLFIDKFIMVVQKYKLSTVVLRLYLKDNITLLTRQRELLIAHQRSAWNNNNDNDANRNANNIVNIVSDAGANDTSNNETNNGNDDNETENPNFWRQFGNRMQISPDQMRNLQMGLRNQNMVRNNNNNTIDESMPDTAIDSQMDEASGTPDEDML

Assay [2] concerns the target T2, Whi7-HA^S27A,T100A (S. cerevisiae) (UniProt P36167).
T2 sequence: T1 sequence with S27A, T100A
The description is as above.

Numbering of substitutions follows the chain as printed. Results are given in words; binding and its absence hold for the method and conditions named. In cells and extracts the contact can be indirect. For some assays here: Binding calls can cover weak binding; strength is not graded here. Where a sequence is shown, tags or fusion partners need not be part of it.

For Grr1ΔF-FLAG (from UniProt P24814), the binding entry in assay [1] is “binds”; in assay [2] it was “no binding”.

The values are drawn from PMC10897450.
